{"sequences": {"note": "Chains of the proteins cited; added tags and fusions are not shown. Residues count along the entry.", "UniProt P14735, whole entry, species assumed": "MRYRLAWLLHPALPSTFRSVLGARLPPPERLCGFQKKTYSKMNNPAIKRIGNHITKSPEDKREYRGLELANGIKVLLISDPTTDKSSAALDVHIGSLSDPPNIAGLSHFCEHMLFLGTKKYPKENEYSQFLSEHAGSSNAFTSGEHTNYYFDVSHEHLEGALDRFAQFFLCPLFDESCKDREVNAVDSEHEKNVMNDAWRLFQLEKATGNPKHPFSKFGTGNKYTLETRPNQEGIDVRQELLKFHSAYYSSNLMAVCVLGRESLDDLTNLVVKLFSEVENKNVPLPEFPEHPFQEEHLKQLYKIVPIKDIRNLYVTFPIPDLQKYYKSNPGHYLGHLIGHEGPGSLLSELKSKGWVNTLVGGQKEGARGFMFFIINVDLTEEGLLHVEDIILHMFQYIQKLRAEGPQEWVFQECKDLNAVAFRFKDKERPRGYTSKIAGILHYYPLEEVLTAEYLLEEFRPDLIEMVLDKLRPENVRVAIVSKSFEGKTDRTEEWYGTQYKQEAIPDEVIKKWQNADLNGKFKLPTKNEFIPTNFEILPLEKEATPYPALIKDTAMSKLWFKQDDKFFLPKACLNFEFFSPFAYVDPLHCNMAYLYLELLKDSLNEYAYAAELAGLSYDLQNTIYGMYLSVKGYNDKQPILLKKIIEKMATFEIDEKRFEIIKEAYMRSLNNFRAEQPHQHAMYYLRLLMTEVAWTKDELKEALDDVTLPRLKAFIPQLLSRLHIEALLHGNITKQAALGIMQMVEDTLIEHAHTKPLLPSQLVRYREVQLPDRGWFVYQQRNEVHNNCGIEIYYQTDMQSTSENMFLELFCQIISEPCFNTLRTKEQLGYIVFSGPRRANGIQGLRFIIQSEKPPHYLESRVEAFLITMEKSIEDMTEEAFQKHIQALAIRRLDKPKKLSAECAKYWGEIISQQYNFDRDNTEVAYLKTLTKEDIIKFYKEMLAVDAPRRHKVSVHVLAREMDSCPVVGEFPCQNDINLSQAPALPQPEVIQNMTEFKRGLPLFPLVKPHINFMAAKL", "UniProt P78536, 215-824, species assumed": "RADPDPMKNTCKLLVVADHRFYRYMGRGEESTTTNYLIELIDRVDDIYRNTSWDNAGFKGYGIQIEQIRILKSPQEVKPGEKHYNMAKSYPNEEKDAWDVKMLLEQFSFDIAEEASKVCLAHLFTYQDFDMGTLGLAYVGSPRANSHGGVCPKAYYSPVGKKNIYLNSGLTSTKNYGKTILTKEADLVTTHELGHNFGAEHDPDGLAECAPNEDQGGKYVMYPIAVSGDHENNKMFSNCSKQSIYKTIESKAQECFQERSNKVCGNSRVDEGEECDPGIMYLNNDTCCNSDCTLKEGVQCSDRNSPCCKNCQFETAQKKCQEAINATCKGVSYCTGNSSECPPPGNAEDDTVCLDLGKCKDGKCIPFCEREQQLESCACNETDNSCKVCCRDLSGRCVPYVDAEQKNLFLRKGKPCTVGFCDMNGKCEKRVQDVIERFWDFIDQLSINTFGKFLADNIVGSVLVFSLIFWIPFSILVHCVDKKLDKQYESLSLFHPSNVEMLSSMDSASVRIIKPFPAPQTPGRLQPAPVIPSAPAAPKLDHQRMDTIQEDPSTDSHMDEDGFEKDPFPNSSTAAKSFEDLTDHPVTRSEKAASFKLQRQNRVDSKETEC"}, "source": "patent US8377889B2", "about": "“Adiponectin receptor fragments and methods of use” (Siemens Healthcare Diagnostics Inc., priority 2007, dated 2013)", "key": {"[1]": {"target": "insulin degradation enzyme (IDE) (Homo sapiens, UniProt P14735)", "assay": "Inhibition of IDE activity", "format": "biochemical", "settings": "for IDE inhibition: Example 9, Table 3"}, "normal rats": {"test_system": "normal rats", "assay": "Plasma insulin testing in normal rats", "format": "in vivo, rat", "settings": "2 mg/mL in saline intravenously, 0-120 min post glucose dose", "procedure": "The peptides of SEQ ID NO:1 (ECM32) and SEQ ID NO:2 (ECM30) were tested by treating normal rat groups of 6 to 8 animals at 2 mg/mL in saline intravenously and compared to an untreated control group (0.9% saline solution only). All three groups were fasted on Day 0. Fasted plasma glucose and insulin were measured on Day 1 at 0, 30, 60, 90, and 120 minutes post glucose dose (5 mL/kg). Plasma levels of ECM30 and ECM32 were also measured. Plots of the data are shown in FIG. 1 and FIG. 2, for the insulin level in ng/mL and glucose level in mg/dL, respectively, as a function of time."}, "Adiponectin in Plasma": {"test_system": "Adiponectin in Plasma", "assay": "Effect on plasma adiponectin level in normal and diabetic rats", "format": "in vivo, rat", "settings": "2 mg/kg, 120 min"}, "ADAM-17": {"target": "ADAM-17 (Homo sapiens, UniProt P78536)", "assay": "Inhibition of ADAM-17 (TACE) activity", "format": "biochemical", "settings": "for ADAM 17 inhibition: Example 9, Table 3", "procedure": "(§1) The cleavage enzymes for ECM32 are also potential therapeutic targets. ECM32 sequence at the cleavage site was matched to Elastase (X-VV) and ADAM17 (X-VVAA) as potential enzymes (proteases) able to cleave or bind ECM32. The peptides of SEQ ID NO:1 (ECM32) and SEQ ID NO:2 (ECM30) were tested at levels of 0 mg/L, 12.5 mg/L, 25 mg/L, and 50 mg/L for their effect on cleavage enzymes.\nThe effect of ECM32 (SEQ ID NO:1), ECM30 (SEQ ID NO:2), ECM25 (SEQ ID NO:5), ECM10 (SEQ ID NO:6), ECM12 (SEQ ID NO:7), and ECM9 (SEQ ID NO:8) on ADAM-17 activity was evaluated."}, "Elastase": {"test_system": "Elastase", "assay": "Elastase inhibition", "format": "biochemical", "settings": "Example 4; 0, 12.5, 25, 50 mg/L", "procedure": "as §1"}, "normal and diabetic rats": {"test_system": "normal and diabetic rats", "assay": "Effect on plasma glucose level in normal and diabetic rats", "format": "in vivo, rat", "settings": "injected at 2 mg/kg", "procedure": "The effect of ECM32 (SEQ ID NO:1) and ECM30 (SEQ ID NO:2) on the plasma glucose levels in normal and diabetic rats was evaluated. The peptides were injected at 2 mg/kg along with a control group. […] This could be due to ADAM-17 cleavage of ECM30 into IDE inhibitory forms in vivo."}}, "note": "Not every detail of the peptide structures is certain; ends, links or a residue may be inferred. Residues, ends and D or L forms follow the SMILES beside them."}
{"smiles": "CC(C)C[C@H](NC(=O)[C@H](CC(C)C)NC(=O)[C@@H](NC(=O)[C@H](CC(=O)O)NC(=O)[C@H](CC(=O)O)NC(=O)[C@@H](NC(=O)[C@H](CS)NC(=O)CNC(=O)CNC(=O)[C@H](CCC(=O)O)NC(=O)[C@H](CC(C)C)NC(=O)CNC(=O)[C@H](Cc1ccc(O)cc1)NC(=O)[C@H](CCCNC(=N)N)NC(=O)[C@H](Cc1ccccc1)NC(=O)[C@H](CCC(=O)O)NC(=O)[C@H](CCC(N)=O)NC(=O)[C@H](CC(C)C)NC(=O)[C@H](CC(N)=O)NC(=O)[C@H](CO)NC(=O)[C@@H](NC(=O)CNC(=O)[C@H](Cc1ccc(O)cc1)NC(=O)[C@H](Cc1ccccc1)NC(=O)[C@H](Cc1c[nH]cn1)NC(=O)[C@@H](NC(=O)[C@H](Cc1ccccc1)NC(=O)[C@H](C)NC(=O)[C@H](C)NC(=O)[C@H](C)NC(=O)[C@@H](NC(=O)[C@@H](N)C(C)C)C(C)C)C(C)C)C(C)C)[C@@H](C)O)[C@@H](C)O)C(=O)O", "note": "[ECM32] (H-VVAAAFVHFYGVSNLQEFRYGLEGGCTDDTLL-OH; N-terminus and C-terminus assumed)", "values": [{"measurement": "inhibition of IDE", "setting": "[1]; Example 4", "value": "inhibition of IDE was observed"}, {"measurement": "IDE activity over time", "setting": "[1]; Example 8, 0-50 μg/ml for ECM32, 0-100 μg/ml for ECM30", "value": "inhibits IDE activity over time"}, {"measurement": "IDE inhibition", "setting": "[1]", "value": "inhibit IDE activity"}, {"measurement": "IDE inhibition", "setting": "[1]; listed as ECM 32", "value": "positive"}, {"measurement": "plasma insulin compared to the control group", "setting": "normal rats", "value": "marked elevation in the plasma insulin"}, {"measurement": "Adiponectin in Plasma, Mean ± SD", "setting": "Adiponectin in Plasma; Diabetic Rats (ZDF)", "value": "20.46 ± 3.41", "unit": "µg/mL"}, {"measurement": "Adiponectin in Plasma, Mean ± SD", "setting": "Adiponectin in Plasma; Normal Rats (SD)", "value": "20.00 ± 8.07", "unit": "µg/mL"}, {"measurement": "inhibitory effect on ADAM-17 (% TACE control activity)", "setting": "ADAM-17; Example 4, 0, 12.5, 25, 50 mg/L", "value": "strong inhibitory effect"}, {"measurement": "ADAM 17 inhibition", "setting": "ADAM-17", "value": "inhibits ADAM-17 activity"}, {"measurement": "ADAM 17 inhibition", "setting": "ADAM-17; listed as ECM 32", "value": "positive"}, {"measurement": "elastase inhibition", "setting": "Elastase", "value": "Neither ECM30 nor ECM32 showed elastase inhibition"}, {"measurement": "plasma glucose levels", "setting": "normal and diabetic rats", "value": "lowered glucose levels"}]}
